Laboratory results published in the supplement of paper PMC10849652.
Some of the results follow.

The chains behind the UniProt entries cited, without tags or fusion partners. Where a name states a change or a piece, a line headed by the entry shows the natural chain unless it says otherwise.
UniProt Q12874: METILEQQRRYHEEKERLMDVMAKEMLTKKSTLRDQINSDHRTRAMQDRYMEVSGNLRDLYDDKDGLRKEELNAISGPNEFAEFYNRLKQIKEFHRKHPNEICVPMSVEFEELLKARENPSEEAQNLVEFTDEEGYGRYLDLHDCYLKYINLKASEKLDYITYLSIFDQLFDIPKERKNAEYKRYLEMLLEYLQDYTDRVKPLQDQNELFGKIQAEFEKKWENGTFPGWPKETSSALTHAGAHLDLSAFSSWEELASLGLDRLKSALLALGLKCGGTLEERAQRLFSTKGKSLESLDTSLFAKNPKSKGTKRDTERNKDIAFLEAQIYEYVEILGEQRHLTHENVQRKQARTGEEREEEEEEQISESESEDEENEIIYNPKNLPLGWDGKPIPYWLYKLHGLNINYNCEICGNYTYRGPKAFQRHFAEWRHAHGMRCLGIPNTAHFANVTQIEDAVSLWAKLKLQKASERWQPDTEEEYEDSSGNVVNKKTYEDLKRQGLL
UniProt Q9H9S3, whole entry, looked up: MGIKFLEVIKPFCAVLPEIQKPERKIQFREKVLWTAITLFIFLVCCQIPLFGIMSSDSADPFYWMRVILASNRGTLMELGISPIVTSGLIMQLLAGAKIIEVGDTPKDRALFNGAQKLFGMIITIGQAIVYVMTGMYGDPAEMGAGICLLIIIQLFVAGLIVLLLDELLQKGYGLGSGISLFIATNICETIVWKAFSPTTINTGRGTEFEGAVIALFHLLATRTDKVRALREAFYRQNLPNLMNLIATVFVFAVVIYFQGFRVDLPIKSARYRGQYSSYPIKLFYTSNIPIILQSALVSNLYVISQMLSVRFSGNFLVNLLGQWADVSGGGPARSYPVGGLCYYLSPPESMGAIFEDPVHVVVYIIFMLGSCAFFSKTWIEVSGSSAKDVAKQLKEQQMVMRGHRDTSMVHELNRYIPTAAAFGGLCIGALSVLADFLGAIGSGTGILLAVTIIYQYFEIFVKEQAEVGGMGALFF
UniProt Q15393: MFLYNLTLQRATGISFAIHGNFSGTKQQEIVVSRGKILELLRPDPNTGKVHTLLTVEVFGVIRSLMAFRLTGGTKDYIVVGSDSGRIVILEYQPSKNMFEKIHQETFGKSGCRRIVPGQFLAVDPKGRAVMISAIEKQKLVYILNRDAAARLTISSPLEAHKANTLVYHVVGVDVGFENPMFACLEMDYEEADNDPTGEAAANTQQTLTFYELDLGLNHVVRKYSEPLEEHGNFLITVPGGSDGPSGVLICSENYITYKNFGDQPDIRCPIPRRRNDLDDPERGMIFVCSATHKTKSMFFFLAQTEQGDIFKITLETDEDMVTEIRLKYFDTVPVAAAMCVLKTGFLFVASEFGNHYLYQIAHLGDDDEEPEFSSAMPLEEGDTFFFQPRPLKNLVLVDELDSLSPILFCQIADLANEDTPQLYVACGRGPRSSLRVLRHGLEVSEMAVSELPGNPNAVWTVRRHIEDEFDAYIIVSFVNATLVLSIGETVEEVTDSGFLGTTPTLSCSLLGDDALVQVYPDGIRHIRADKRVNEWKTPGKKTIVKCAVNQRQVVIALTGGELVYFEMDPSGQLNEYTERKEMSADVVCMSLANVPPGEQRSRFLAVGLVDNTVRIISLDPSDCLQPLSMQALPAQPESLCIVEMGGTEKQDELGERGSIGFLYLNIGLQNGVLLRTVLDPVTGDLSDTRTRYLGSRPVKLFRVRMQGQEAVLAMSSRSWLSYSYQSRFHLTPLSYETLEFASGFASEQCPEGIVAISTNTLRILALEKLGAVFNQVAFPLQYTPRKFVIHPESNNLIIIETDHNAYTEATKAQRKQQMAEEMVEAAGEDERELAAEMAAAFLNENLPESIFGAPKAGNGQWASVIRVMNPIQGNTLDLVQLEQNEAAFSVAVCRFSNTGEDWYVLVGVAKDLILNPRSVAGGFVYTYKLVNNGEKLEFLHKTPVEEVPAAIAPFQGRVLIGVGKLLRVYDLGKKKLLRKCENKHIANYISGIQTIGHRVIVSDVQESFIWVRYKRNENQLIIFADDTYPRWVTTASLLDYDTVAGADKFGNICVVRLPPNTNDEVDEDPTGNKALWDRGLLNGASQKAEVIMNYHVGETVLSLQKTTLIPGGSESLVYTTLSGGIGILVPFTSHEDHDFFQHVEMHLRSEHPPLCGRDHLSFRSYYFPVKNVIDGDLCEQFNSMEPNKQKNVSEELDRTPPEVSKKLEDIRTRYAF
UniProt Q9UQ13: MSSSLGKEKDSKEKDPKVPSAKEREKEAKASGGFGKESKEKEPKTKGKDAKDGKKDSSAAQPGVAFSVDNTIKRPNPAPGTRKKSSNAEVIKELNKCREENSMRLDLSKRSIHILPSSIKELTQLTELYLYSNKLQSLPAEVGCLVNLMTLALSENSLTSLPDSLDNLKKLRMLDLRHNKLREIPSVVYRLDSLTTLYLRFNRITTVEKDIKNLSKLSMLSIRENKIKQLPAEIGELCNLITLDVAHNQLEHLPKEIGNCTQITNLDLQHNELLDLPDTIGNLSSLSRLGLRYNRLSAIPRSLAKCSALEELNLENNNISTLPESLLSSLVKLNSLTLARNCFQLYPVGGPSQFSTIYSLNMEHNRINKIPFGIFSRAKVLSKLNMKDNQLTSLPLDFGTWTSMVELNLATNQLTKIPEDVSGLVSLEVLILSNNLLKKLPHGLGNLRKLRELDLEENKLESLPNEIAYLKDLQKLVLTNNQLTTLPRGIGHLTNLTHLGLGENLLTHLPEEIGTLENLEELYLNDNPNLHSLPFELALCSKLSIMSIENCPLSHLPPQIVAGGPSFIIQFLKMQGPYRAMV
UniProt Q14141: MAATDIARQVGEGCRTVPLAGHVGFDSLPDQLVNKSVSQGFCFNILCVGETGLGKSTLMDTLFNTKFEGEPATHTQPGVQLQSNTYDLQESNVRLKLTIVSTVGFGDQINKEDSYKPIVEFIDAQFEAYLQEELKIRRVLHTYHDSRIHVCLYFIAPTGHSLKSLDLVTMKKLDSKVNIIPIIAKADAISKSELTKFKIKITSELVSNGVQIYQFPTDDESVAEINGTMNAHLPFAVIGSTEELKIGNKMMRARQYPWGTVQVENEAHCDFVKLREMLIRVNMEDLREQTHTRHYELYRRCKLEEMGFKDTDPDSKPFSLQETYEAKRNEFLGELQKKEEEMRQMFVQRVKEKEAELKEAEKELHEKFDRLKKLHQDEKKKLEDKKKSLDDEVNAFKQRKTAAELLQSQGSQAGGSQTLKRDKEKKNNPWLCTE
UniProt Q96ES7: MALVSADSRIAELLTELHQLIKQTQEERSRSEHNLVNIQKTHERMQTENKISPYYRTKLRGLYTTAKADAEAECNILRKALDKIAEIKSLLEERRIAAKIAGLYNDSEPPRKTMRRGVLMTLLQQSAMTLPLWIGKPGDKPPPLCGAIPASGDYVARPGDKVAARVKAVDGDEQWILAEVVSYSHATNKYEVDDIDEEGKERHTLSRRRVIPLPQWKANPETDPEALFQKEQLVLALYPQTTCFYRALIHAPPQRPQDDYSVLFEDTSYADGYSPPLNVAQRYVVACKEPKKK
UniProt Q53H47: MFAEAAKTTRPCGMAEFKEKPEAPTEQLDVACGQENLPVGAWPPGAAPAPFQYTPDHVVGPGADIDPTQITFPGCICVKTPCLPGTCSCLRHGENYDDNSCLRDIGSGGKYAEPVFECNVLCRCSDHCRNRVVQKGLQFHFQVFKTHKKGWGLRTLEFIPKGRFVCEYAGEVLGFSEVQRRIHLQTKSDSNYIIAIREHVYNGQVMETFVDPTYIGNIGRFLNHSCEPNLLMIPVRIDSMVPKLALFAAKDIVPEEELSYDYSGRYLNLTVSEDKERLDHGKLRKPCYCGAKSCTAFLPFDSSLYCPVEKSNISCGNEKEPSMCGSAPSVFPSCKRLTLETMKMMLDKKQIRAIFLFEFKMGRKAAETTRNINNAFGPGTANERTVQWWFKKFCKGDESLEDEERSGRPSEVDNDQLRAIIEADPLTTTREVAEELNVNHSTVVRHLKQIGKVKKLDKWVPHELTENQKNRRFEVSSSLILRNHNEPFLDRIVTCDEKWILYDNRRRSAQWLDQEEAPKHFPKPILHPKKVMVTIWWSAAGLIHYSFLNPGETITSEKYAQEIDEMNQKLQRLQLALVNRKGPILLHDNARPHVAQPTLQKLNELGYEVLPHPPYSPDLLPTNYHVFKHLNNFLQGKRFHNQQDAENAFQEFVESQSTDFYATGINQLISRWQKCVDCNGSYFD
UniProt Q9UGK8: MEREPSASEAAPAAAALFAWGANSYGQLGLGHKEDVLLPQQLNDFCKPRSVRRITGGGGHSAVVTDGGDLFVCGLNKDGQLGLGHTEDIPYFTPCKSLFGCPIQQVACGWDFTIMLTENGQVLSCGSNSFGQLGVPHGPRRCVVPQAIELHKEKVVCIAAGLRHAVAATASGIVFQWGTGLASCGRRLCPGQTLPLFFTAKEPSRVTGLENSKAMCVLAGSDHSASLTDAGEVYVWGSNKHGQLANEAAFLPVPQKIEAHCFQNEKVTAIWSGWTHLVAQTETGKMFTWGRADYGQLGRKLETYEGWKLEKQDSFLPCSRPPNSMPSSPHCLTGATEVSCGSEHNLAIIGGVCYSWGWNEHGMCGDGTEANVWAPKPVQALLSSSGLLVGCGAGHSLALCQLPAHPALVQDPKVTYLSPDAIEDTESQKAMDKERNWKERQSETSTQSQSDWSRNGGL
UniProt P50453: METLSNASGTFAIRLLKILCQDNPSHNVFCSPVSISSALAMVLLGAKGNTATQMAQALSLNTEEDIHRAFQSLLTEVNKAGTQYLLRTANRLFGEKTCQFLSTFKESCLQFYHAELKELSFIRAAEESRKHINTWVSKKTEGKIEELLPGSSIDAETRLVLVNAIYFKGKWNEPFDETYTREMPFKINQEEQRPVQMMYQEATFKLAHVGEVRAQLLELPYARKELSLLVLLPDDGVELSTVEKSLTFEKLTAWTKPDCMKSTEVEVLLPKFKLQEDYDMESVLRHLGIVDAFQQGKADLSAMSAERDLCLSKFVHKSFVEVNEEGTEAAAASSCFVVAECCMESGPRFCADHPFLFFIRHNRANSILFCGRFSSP
UniProt Q96NB2: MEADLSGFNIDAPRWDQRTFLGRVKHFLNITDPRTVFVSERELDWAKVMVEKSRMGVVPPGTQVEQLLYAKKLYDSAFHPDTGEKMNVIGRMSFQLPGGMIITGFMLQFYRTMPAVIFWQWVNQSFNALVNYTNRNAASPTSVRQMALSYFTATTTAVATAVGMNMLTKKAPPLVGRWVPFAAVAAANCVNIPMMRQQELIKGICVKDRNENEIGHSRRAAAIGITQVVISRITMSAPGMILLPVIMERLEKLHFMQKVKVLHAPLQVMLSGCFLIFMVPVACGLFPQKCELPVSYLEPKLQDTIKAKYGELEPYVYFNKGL
UniProt Q8TBC3: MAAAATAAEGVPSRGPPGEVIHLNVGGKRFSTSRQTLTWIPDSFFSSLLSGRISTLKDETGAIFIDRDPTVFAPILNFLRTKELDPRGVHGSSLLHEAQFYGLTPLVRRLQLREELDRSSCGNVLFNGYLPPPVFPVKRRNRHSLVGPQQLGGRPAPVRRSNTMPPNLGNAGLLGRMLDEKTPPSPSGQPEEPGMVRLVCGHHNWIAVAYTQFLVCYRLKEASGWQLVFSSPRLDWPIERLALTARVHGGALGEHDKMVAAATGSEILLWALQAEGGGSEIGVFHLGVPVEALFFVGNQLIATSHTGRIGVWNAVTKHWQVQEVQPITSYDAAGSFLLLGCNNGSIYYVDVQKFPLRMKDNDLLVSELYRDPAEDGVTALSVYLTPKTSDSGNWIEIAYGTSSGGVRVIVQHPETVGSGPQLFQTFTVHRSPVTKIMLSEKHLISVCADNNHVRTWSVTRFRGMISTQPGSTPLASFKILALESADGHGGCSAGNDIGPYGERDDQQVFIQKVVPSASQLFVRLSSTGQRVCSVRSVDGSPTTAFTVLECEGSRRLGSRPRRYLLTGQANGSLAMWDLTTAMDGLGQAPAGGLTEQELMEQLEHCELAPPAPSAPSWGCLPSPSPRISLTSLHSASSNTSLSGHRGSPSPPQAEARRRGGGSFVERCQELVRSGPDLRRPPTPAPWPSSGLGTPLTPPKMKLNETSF
UniProt O75368: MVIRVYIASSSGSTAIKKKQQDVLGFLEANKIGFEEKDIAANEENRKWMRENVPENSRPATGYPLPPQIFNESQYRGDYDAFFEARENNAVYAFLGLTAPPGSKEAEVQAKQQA
UniProt Q96EQ0: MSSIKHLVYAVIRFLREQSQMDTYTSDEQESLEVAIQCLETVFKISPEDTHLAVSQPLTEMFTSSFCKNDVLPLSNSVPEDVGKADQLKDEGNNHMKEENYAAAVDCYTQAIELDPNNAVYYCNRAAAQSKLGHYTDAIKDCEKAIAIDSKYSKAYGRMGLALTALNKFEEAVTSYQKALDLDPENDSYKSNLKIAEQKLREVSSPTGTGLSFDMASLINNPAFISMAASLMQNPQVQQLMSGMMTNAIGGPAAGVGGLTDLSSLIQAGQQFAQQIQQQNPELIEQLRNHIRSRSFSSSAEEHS

Tests used:
Experiment in all cases: log2 fold change, soluble protein after heating vs DMSO (PISA); higher = thermal stabilisation; K562 cells, 10 uM, 30 min; active = over 0.2 and 3.5 SD of the protein, either way, in both replicates (recomputed)
[1] = compound: CC1=C(C=C(C=C1)NC(=O)C2=CC(=CC=C2)C(C)(C)C#N)NC3=CC4=C(C=C3)N=CN(C4=O)C
Procedure, shortened: (§1)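 K562 cells at 2×10^6 cells/mL were exposed to 10 μM compound for 30 min, then aliquots were heated for 3 min across 48°C-58°C, pooled, and extracted in PBS containing 0.5% NP-40 at 4°C. The supernatant after 21,000xg for 90 min was taken as soluble protein and measured by TMTpro 16plex LC-MS/MS with channel sums equalised. Thermal stability is reported relative to control samples, with values from duplicates. Fold changes are given on a log2 scale.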

[2] = compound: CC1=C(C=C(C=C1)NC(=O)C2=CC(=CC=C2)N(C)C)NC(=O)C3=CC=C(C=C3)O
Procedure, shortened: as §1

[3] = compound: CC1=CC=C(C=C1)SC2=C3C=C(SC3=CN=C2)C(=O)N
Procedure, shortened: as §1

[4] = compound: CC1=NC(=CC=C1)C2=C(N=C(N2)C(C)(C)C)C3=CC4=NC=CN=C4C=C3
Procedure, shortened: as §1

Nexturastat A = compound: CCCCN(Cc1ccc(C(=O)NO)cc1)C(=O)Nc1ccccc1 [Nexturastat A]
Procedure, shortened: as §1

vemurafenib = compound: CCCS(=O)(=O)Nc1ccc(F)c(C(=O)c2c[nH]c3ncc(-c4ccc(Cl)cc4)cc23)c1F [vemurafenib]
Procedure, shortened: as §1

[5] = compound: CCCS(=O)(=O)Nc1ccc(F)c(C(=O)c2c[nH]c3ncc(Cl)cc23)c1F
Procedure, shortened: as §1

[6] = compound: CCCc1cc(C)[nH]c(=O)c1CNC(=O)c1cc(-c2ccnc(N3CCN(C)CC3)c2)cc2c1cnn2C(C)C
Procedure, shortened: as §1

givinostat = compound: CCN(CC)Cc1ccc2cc(COC(=O)Nc3ccc(C(=O)NO)cc3)ccc2c1 [givinostat]
Procedure, shortened: as §1

barasertib = compound: CCN(CCCOc1ccc2c(Nc3cc(CC(=O)Nc4cccc(F)c4)[nH]n3)ncnc2c1)CCOP(=O)(O)O [barasertib]
Procedure, shortened: as §1

Measured: log2 fold change

SERPINF2 (UniProt P08697)
inactive: [1] -0.079 | [2] 0.278 | [3] 0.188 | [4] 0.137 | Nexturastat A -0.057 | vemurafenib 0.047 | [5] -0.06 | [6] -0.414 | givinostat -0.154 | barasertib -0.204

SIPA1 (UniProt Q96FS4)
inactive: [1] 0 | [2] 0.053 | [3] 0.003 | [4] 0.009 | Nexturastat A 0.082 | vemurafenib -0.036 | [5] -0.016 | [6] -0.002 | givinostat -0.038 | barasertib -0.008

SF3A3 (UniProt Q12874)
inactive: [1] 0.004 | [2] -0.136 | [3] 0.026 | [4] 0.008 | Nexturastat A 0.181 | vemurafenib 0.023 | [5] 0.009 | [6] -0.223 | givinostat 0.005 | barasertib 0.001

SELENOT (UniProt P62341)
inactive: [1] 0.026 | [2] 0.14 | [3] -0.077 | [4] -0.002 | Nexturastat A -0.001 | vemurafenib -0.082 | [5] 0.015 | [6] -0.001 | givinostat -0.02 | barasertib -0.043

SEC61A2 (UniProt Q9H9S3)
inactive: [1] 0.065 | [2] 0 | [3] 0.016 | [4] -0.04 | Nexturastat A -0.106 | vemurafenib 0.045 | [5] 0.039 | [6] -0.098 | givinostat -0.029 | barasertib -0.007

SF3B3 (UniProt Q15393)
inactive: [1] 0.026 | [2] -0.012 | [3] 0.004 | [4] 0.025 | Nexturastat A -0.029 | vemurafenib 0.023 | [5] 0.011 | [6] -0.025 | givinostat -0.008 | barasertib -0.001

SHOC2 (UniProt Q9UQ13)
inactive: [1] -0.073 | [2] -0.039 | [3] 0.014 | [4] -0.012 | Nexturastat A -0.007 | vemurafenib 0.042 | [5] 0.007 | [6] -0.012 | givinostat 0.072 | barasertib 0.04

SEPTIN6 (UniProt Q14141)
inactive: [1] 0.037 | [2] 0.024 | [3] -0.008 | [4] 0.021 | Nexturastat A -0.052 | vemurafenib -0.017 | [5] -0.01 | [6] 0.28 | givinostat -0.074 | barasertib -0.034

SGF29 (UniProt Q96ES7)
inactive: [1] -0.009 | [2] -0.003 | [3] 0.003 | [4] 0.011 | Nexturastat A 0.014 | vemurafenib 0.108 | [5] 0.073 | [6] -0.032 | givinostat 0.096 | barasertib 0.037

SEPTIN7 (UniProt Q16181)
inactive: [1] 0.006 | [2] 0.003 | [3] -0.022 | [4] 0.026 | Nexturastat A -0.009 | vemurafenib 0.02 | [5] 0.035 | [6] -0.007 | givinostat 0.005 | barasertib 0.017

Six neighbouring entries from above, quoted:
SIPA1 (UniProt Q96FS4)
inactive: [1] 0 | [2] 0.053 | [3] 0.003 | [4] 0.009 | Nexturastat A 0.082 | vemurafenib -0.036 | [5] -0.016 | [6] -0.002 | givinostat -0.038 | barasertib -0.008

SF3A3 (UniProt Q12874)
inactive: [1] 0.004 | [2] -0.136 | [3] 0.026 | [4] 0.008 | Nexturastat A 0.181 | vemurafenib 0.023 | [5] 0.009 | [6] -0.223 | givinostat 0.005 | barasertib 0.001

SELENOT (UniProt P62341)
inactive: [1] 0.026 | [2] 0.14 | [3] -0.077 | [4] -0.002 | Nexturastat A -0.001 | vemurafenib -0.082 | [5] 0.015 | [6] -0.001 | givinostat -0.02 | barasertib -0.043

SEC61A2 (UniProt Q9H9S3)
inactive: [1] 0.065 | [2] 0 | [3] 0.016 | [4] -0.04 | Nexturastat A -0.106 | vemurafenib 0.045 | [5] 0.039 | [6] -0.098 | givinostat -0.029 | barasertib -0.007

SF3B3 (UniProt Q15393)
inactive: [1] 0.026 | [2] -0.012 | [3] 0.004 | [4] 0.025 | Nexturastat A -0.029 | vemurafenib 0.023 | [5] 0.011 | [6] -0.025 | givinostat -0.008 | barasertib -0.001

SHOC2 (UniProt Q9UQ13)
inactive: [1] -0.073 | [2] -0.039 | [3] 0.014 | [4] -0.012 | Nexturastat A -0.007 | vemurafenib 0.042 | [5] 0.007 | [6] -0.012 | givinostat 0.072 | barasertib 0.04

Later entries:

SETMAR (UniProt Q53H47)
inactive: [1] 0.128 | [2] 0.061 | [3] -0.023 | [4] -0.049 | Nexturastat A -0.041 | vemurafenib 0.018 | [5] 0.021 | [6] 0.01 | givinostat -0.036 | barasertib 0.051

SHCBP1 (UniProt Q8NEM2)
inactive: [1] 0 | [2] -0.032 | [3] 0 | [4] 0.07 | Nexturastat A 0.047 | vemurafenib 0.102 | [5] 0.027 | [6] -0.014 | givinostat 0.018 | barasertib 0.117

SELENOS (UniProt Q9BQE4)
inactive: [1] 0 | [2] 0.002 | [3] 0.001 | [4] 0.001 | Nexturastat A 0.086 | vemurafenib 0.002 | [5] -0.043 | [6] -0.02 | givinostat -0.016 | barasertib -0.043

SERGEF (UniProt Q9UGK8)
inactive: [1] -0.006 | [2] -0.263 | [3] -0.088 | [4] 0.003 | Nexturastat A -0.148 | vemurafenib 0.106 | [5] 0.139 | [6] 0.009 | givinostat 0.093 | barasertib -0.015

SERPINB9 (UniProt P50453)
inactive: [1] -0.02 | [2] 0.019 | [3] 0.027 | [4] 0.024 | Nexturastat A -0.023 | vemurafenib -0.007 | [5] 0.054 | [6] -0.01 | givinostat -0.08 | barasertib 0.015

SETDB1 (UniProt Q15047)
inactive: [1] 0.036 | [2] -0.084 | [3] 0.015 | [4] -0.055 | Nexturastat A 0.249 | vemurafenib 0.073 | [5] 0.012 | [6] 0.155 | givinostat 0.203

SFXN2 (UniProt Q96NB2)
inactive: [1] -0.012 | [2] 0.016 | [3] 0.064 | [4] 0.062 | Nexturastat A -0.007 | vemurafenib 0.011 | [5] 0.028 | [6] -0.019 | givinostat -0.034 | barasertib -0.012

SHKBP1 (UniProt Q8TBC3)
inactive: [1] -0.02 | [2] 0.06 | [3] -0.054 | [4] 0.059 | Nexturastat A 0.044 | vemurafenib -0.013 | [5] -0.045 | [6] -0.012 | givinostat -0.012 | barasertib 0.023

SIN3A (UniProt Q96ST3)
inactive: [1] -0.018 | [2] -0.111 | [3] -0.069 | [4] -0.006 | Nexturastat A 0.07 | vemurafenib -0.057 | [5] 0.114 | [6] 0.004 | givinostat -0.081 | barasertib 0.12

SH3BGRL (UniProt O75368)
inactive: [1] 0.104 | [2] -0.03 | [3] 0.055 | [4] 0.002 | Nexturastat A -0.007 | vemurafenib 0.039 | [5] 0.07 | [6] 0.012 | givinostat -0.026 | barasertib 0.03

SH3GLB1 isoform 2 (UniProt Q9Y371)
inactive: [1] 0.037 | [2] -0.019 | [3] 0.006 | [4] -0.022 | Nexturastat A 0.09 | vemurafenib -0.042 | [5] 0.029 | [6] 0.032 | givinostat 0.067 | barasertib 0.06

SELENOF (UniProt O60613)
inactive: [1] -0.03 | [2] -0.056 | [3] -0.039 | [4] -0.039 | Nexturastat A 0.006 | vemurafenib 0.007 | [5] -0.052 | [6] -0.002 | givinostat 0.005 | barasertib -0.013

SKP1 (UniProt P63208)
inactive: [1] 0.095 | [2] 0.048 | [3] 0.094 | [4] 0.017 | Nexturastat A -0.052 | vemurafenib -0.036 | [5] 0.008 | [6] -0.032 | givinostat -0.05 | barasertib -0.021

SGTB (UniProt Q96EQ0)
inactive: [1] 0.003 | [2] 0.013 | [3] -0.051 | [4] 0.005 | Nexturastat A -0.019 | vemurafenib 0.017 | [5] -0.023 | [6] 0.047 | givinostat 0.023 | barasertib 0.005

SERBP1 (UniProt Q8NC51)
inactive: [1] -0.003 | [2] 0.026 | [3] -0.09 | [4] -0.075 | Nexturastat A 0.111 | vemurafenib -0.065 | [5] -0.127 | [6] 0.036 | givinostat -0.037 | barasertib -0.074

SEPTIN5 (UniProt Q99719)
inactive: [1] 0.026 | [2] 0 | [3] 0.007 | [4] 0.003 | Nexturastat A -0.06 | vemurafenib -0.015 | [5] -0.015 | [6] 0.104 | givinostat -0.006 | barasertib -0.013

SKA1 (UniProt Q96BD8)
inactive: [1] 0.001 | [2] 0.094 | [3] -0.045 | [4] -0.068 | Nexturastat A 0.327 | vemurafenib 0.075 | [5] -0.061 | [6] 0.133

SESN2 (UniProt P58004)
inactive: [1] 0.166 | [2] -0.069 | [3] -0.017 | [4] -0.031 | Nexturastat A 0.094 | vemurafenib 0.194 | [5] 0.186 | [6] 0.19 | givinostat 0.046 | barasertib 0.119

SEL1L (UniProt Q9UBV2)
inactive: [1] 0.036 | [2] -0.02 | [3] -0.016 | [4] 0.011 | Nexturastat A -0.09 | vemurafenib -0.013 | [5] 0.022 | [6] 0.023 | givinostat 0.018 | barasertib -0.012

SF3B1 (UniProt O75533)
inactive: [1] 0.045 | [2] -0.049 | [3] 0.025 | [4] 0.007 | Nexturastat A 0.09 | vemurafenib -0.002 | [5] 0.079 | [6] -0.001 | givinostat 0.023 | barasertib -0.007
